{"source": "paper PMC6769022", "about": "“Identification of an adhesive interface for the non-clustered δ1 protocadherin-1 involved in respiratory diseases” (Communications Biology, 2019)", "molecules": {"B1": {"name": "PCDH1 EC1-7Fc (Fc fusion, human, UniProt Q08174 58-852, looked up)", "chain": "TRVVYKVPEEQPPNTLIGSLAADYGFPDVGHLYKLEVGAPYLRVDGKTGDIFTTETSIDREGLRECQNQLPGDPCILEFEVSITDLVQNGSPRLLEGQIEVQDINDNTPNFASPVITLAIPENTNIGSLFPIPLASDRDAGPNGVASYELQAGPEAQELFGLQVAEDQEEKQPQLIVMGNLDRERWDSYDLTIKVQDGGSPPRASSALLRVTVLDTNDNAPKFERPSYEAELSENSPIGHSVIQVKANDSDQGANAEIEYTFHQAPEVVRRLLRLDRNTGLITVQGPVDREDLSTLRFSVLAKDRGTNPKSARAQVVVTVKDMNDNAPTIEIRGIGLVTHQDGMANISEDVAEETAVALVQVSDRDEGENAAVTCVVAGDVPFQLRQASETGSDSKKKYFLQTTTPLDYEKVKDYTIEIVAVDSGNPPLSSTNSLKVQVVDVNDNAPVFTQSVTEVAFPENNKPGEVIAEITASDADSGSNAELVYSLEPEPAAKGLFTISPETGEIQVKTSLDREQRESYELKVVAADRGSPSLQGTATVLVNVLDCNDNDPKFMLSGYNFSVMENMPALSPVGMVTVIDGDKGENAQVQLSVEQDNGDFVIQNGTGTILSSLSFDREQQSTYTFQLKAVDGGVPPRSAYVGVTINVLDENDNAPYITAPSNTSHKLLTPQTRLGETVSQVAAEDFDSGVNAELIYSIAGGNPYGLFQIGSHSGAITLEKEIERRHHGLHRLVVKVSDRGKPPRYGTALVHLYVNETLANRTLLETLLGHSLDTPLDIDIAGDPEYERSKQRGN", "notes": "Protocadherin-1 (PCDH1), human, repeats EC1 to EC7 (full-length extracellular domain); native signal peptide in the construct; Vector CMV:N1-Fc; Fc detected with anti-human IgG; also called human Protocadherin-1 full-length extracellular domain, Fc-tagged; wild-type PCDH1 EC1-7Fc; source: HEK293T, transfected, secreted into serum-free medium, captured on protein G Dynabeads"}}, "key": {"[1]": {"target": "PCDH1 EC1-4 C375S K398E (human) (UniProt Q08174)", "test": "AUC; sedimentation velocity, 50,000 r.p.m., 20 °C, 20 mM Tris-HCl pH 8.0, 150 mM KCl, 50 mM NaCl, 2 mM CaCl2; dimer to monomers; both purified"}, "[2]": {"target": "PCDH1 EC1-7Fc K398E (human) (UniProt Q08174)", "test": "bead aggregation assay; Fc fusions from concentrated HEK293T medium bound to protein G Dynabeads, washed; binding buffer 50 mM TrisHCl pH 7.5, 100 mM NaCl, 10 mM KCl, 0.2% BSA with 2 mM CaCl2; 60 min without motion, then 1 and 2 min rocking; aggregates imaged; both purified"}, "[3]": {"target": "PCDH1 EC1-7Fc (human) (UniProt Q08174)", "test": "bead aggregation assay; as the calcium assay, but with 2 mM EDTA in place of 2 mM CaCl2; both purified"}}, "note": "These are yes or no findings as the source states them, for the method shown.", "data": [{"molecule": "PCDH1 EC1-4 C375S K398E (from UniProt Q08174 58-503) (domain or fragment)", "values": [{"measurement": "binding", "setting": "[1]", "value": "no binding"}]}, {"molecule": "PCDH1 EC1-7Fc K398E (from UniProt Q08174 58-852) (Fc fusion)", "values": [{"measurement": "binding", "setting": "[2]", "value": "no binding"}]}, {"molecule": "B1", "values": [{"measurement": "binding", "setting": "[3]", "value": "no binding (condition: with 2 mM EDTA)"}]}]}
